The campaign covered roughly 400,000 compounds. About 5,500 (1.4%) were called active. This list was built around the results that the source calls inconclusive (neither active nor inactive); the mix of calls is not that of the screen. Calls follow the shape of the dose curve; as a rule, active = well fitted cell-killing curve with a large enough effect; inconclusive = small, poorly fitted or top-dose-only effect, or effect the other way; inactive = flat fitted curve, though single readings scatter. A potency beside an inconclusive call is a rough fit, not a confirmed value.
test: qHTS assay for MDR1-selective chemotherapeutics: Primary screen using the parental adenocarcinoma cell KB-3-1; conditions: KB-3-1 viability, CellTiter-Glo ATP luminescence, 72 h; activity change, negative = cytotoxic: at 46.1 µM (top of the series); also: nearly all actives have a fitted effect of over 60% in size
In short: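 KB-3-1 parental drug-naive adenocarcinoma cells in DMEM/10% FBS, incubated 72 h at 37 C with pin-transferred compounds across a concentration series. Viability by CellTiter-Glo luminescence; concentration-response curves fitted after normalization.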
% is scaled to controls: 0 for no effect and ±100 for the full control effect; potency is read from the fitted curve at half-maximal effect.

SMILES | Potency | activity change, negative = cytotoxic
Oc1ccc(C2C(c3ccccc3)=NN=C(c3ccc(Cl)cc3)N2O)c(O)c1 (stereo not drawn) | inconclusive: 29.1 µM [cytotoxic, single point] | 
Cc1cccc2c1-c1sc(C(=O)N(C)c3cccc(Cl)c3)cc1CO2 | inactive | 
CSc1ccccc1OCc1cc(C(=O)NC(C)Cn2cncn2)no1 (stereo not drawn) | inactive | 
OC(COc1ccccc1)CN1CCCC1 (stereo not drawn) | inactive | 
CCc1ccc(NC(=O)c2sc3nc4n(c(=O)c3c2C)CCC4)cc1 | inactive | 
COc1cc2c(cc1OC)C(C)N(C(=O)c1cc3n(n1)C(C(F)(F)F)CC(c1ccco1)N3)CC2 (stereo not drawn) | inconclusive: 32.6 µM [cytotoxic, single point] | 
Cc1ccccc1NC(=O)COC(=O)C1C2CC3OC(=O)C1C3C2 (stereo not drawn) | inactive | 
CC(=O)Nc1ccc(Nc2c([N+](=O)[O-])c(=O)n(-c3ccccc3)c3ccccc23)cc1 | inactive | 
Cn1nnnc1SCCNCc1cc(Br)ccc1OCc1ccccc1Cl | inconclusive: 29.1 µM [cytotoxic, single point] | 
COc1cccc(OC)c1C(=O)NCCc1csc(-c2ccc(Cl)cc2)n1 | inactive | 
COC(=O)c1c(-c2cccs2)csc1NC(=O)COc1ccc(C)cc1 | inactive | 
NC(=O)C1CCN(C(=O)C(Cc2ccccc2)NC(=O)c2ccccc2)CC1 (stereo not drawn) | inactive | 
COc1cc(NC(=O)CSc2ccc(-c3ccccn3)nn2)cc(OC)c1 | inconclusive: 32.6 µM [cytotoxic, single point] | 
c1ccc2c(-c3nc4ccccc4[nH]3)cccc2c1 | active: 20.6 µM | 
O=C(CSc1nc(-c2ccc(F)cc2)[nH]c1-c1ccc(F)cc1)Nc1ccc2c(c1)OCO2 | inconclusive: 29.1 µM [cytotoxic, single point] | 
CCC1CCCCN1C(=O)CN1C(=O)c2ccccc2S1(=O)=O (stereo not drawn) | inactive | 
Cc1ccc(Cc2c(-c3ccco3)nc3c(C)cc(Br)cn23)cc1 | inconclusive: 25.9 µM [cytotoxic, single point] | 
CCOC(=O)C1=C[C@@H](C(C)(C)C)N(S(=O)(=O)c2ccc(C)cc2)[C@H]1c1ccc(OC)cc1 | inconclusive: 16.4 µM [cytotoxic, single point] | 
COc1ccc2sc3c(=O)[nH]c4ccccc4c3c2c1 | inconclusive: 0.517 µM [cytotoxic, full curve, poor fit] | 
Cc1ccc(/C=N/NC(=O)c2cccnc2)s1 | inactive | 
CC(=O)Nc1ccc(S(=O)(=O)N[C@@H](C)C(=O)OCC(=O)NC2CCCC2)cc1 | inconclusive: 32.6 µM [rising, single point] | 
Cc1ccn2c(=O)cc(COc3cccc(NC(=O)Nc4cccc(Cl)c4C)c3)nc2c1 | inactive | 
COc1ccc(CCNC(=O)CSc2cn(Cc3cccc(C)c3)c3ccccc23)cc1OC | inconclusive: 29.1 µM [cytotoxic, single point] | 
CN(Cc1cnc2nc(N)nc(N)c2n1)c1ccc(C(=O)NC(CCC(=O)O)C(=O)O)c2ccccc12 (stereo not drawn) | inconclusive: 0.0092 µM [cytotoxic, full curve] | 

Entries of single compounds, looked up by structure.
`Cc1ccc(/C=N/NC(=O)c2cccnc2)s1` is listed with Potency: inactive
`COc1cccc(OC)c1C(=O)NCCc1csc(-c2ccc(Cl)cc2)n1` is listed with Potency: inactive
`COc1ccc2sc3c(=O)[nH]c4ccccc4c3c2c1` is listed with Potency: inconclusive: 0.517 µM [cytotoxic, full curve, poor fit]
`CCC1CCCCN1C(=O)CN1C(=O)c2ccccc2S1(=O)=O` (stereo not drawn) is listed with Potency: inactive

The list goes on.

SMILES | Potency | activity change, negative = cytotoxic
Cc1ccc(Nc2c(-c3ccccn3)nc3cc(C)ccn23)cc1 | inconclusive: 25.9 µM [cytotoxic, single point] | 
Cc1cccc(-c2ccc3[nH]c4c(c3c2)CCN2C[C@@H]([C@H](C)O)[C@@H](N(C)C(=O)Nc3ccc(F)cc3)C[C@@H]42)c1 | inconclusive: 20.6 µM [cytotoxic, single point] | 
O=c1c2c(nc3c(-c4ccccc4)c[nH]n13)CCCC2 | active: 20.6 µM | 
CCOc1cc(C(=O)NCC(c2ccc(N(C)C)cc2)N2CCOCC2)cc(OCC)c1OCC (stereo not drawn) | inactive | 
COc1ccc(CNc2nc(Cl)nc3nc[nH]c23)cc1 | inconclusive: 29.1 µM [rising, single point] | inconclusive: 3.92%
Cc1csc(SCC(=O)Nc2cc([N+](=O)[O-])ccc2F)n1 | inconclusive: 29.1 µM [cytotoxic, single point] | 
CC1CCC(NC(=O)CN2C(=O)NC(C)(C)C2=O)CC1 (stereo not drawn) | inactive | 
Cc1cc(Nc2cccc(C(F)(F)F)c2)nc2ccc(NC(=O)c3cccc(Cl)c3)cc12 | inconclusive: 18.4 µM [cytotoxic, single point] | 
CCOc1ccc(/C=C/C2=Cc3c(sc(NC(=O)CSc4n[nH]c(N)n4)c3C#N)C(C)(C)C2)cc1 | active: 16.4 µM | 
COC(=O)c1cc(Br)cn1S(=O)(=O)c1ccccc1 | inactive | 
COc1cc2c(cc1OC)CN(C(=O)CCOc1ccccc1C)CC2 | inconclusive: 18.4 µM [cytotoxic, single point] | 
CC(C)Sc1nsc2nc(=O)c(/C=C3\C=Nc4ccccc43)c(N)n12 | inactive | 
Oc1ccc(C=NNC(=S)Nc2ccc(F)cc2)c(O)c1 | inconclusive: 20.6 µM [cytotoxic, single point] | 
C=CCn1c(SCC(=O)N2CCOCC2)nc2sc3c(c2c1=O)CCCC3 | inactive | 
CC(C)(C)c1cc(NS(=O)(=O)c2ccc(Br)s2)no1 | inactive | 
CC1CCCN(S(=O)(=O)c2ccc3c(c2)c(=O)nc2ccccn23)C1 (stereo not drawn) | inactive | 
O=c1c2ccccc2c(C=Nc2cccc(O)c2)c(O)n1-c1ccc2c(c1)OCO2 | inconclusive: 18.4 µM [cytotoxic, single point] | 
COc1ccccc1-n1c(CCC(=O)O)ccc1-c1ccccc1 | inactive | 
CC(C)[C@H](CO)NC(=O)[C@H]1O[C@@H](n2ccc(=O)[nH]c2=O)[C@H](O)[C@@H]1O | inactive | 
O=C(Nc1ccccn1)c1ccc2c(c1)OCO2 | inconclusive: 32.6 µM [cytotoxic, single point] | 
CCOC(=O)CSc1nnc([C@H](C)NC(=O)OC(C)(C)C)o1 | inactive | 
CC(=O)O[C@@]12CO[C@@H]1C[C@H](O)[C@@]1(C)C(=O)[C@H](O)C3=C(C)[C@@H](OC(=O)[C@H](O)[C@@H](NC(=O)OC(C)(C)C)c4ccccc4)C[C@@](O)([C@@H](OC(=O)c4ccccc4)[C@H]21)C3(C)C |  | inconclusive: -11.2%
O=C(Nc1ccc2nc(-c3ccc(Br)o3)[nH]c2c1)c1cccs1 | inconclusive: 0.326 µM [rising, full curve, poor fit] | 
